Experimental data as given in PubChem BioAssay (EPA / NIEHS).
Where “and” joins values, the source holds several entries; their conditions need not be identical. Equal entries are not always repeated. Inconclusive means that the source gave no clear call. Such entries were picked first, then a sample of the others. A potency beside an inconclusive call is a rough fit, not a confirmed value. Calls of active or inactive are those of the source. How the source made its calls: active means hit-call score of the fitted dose curve at least 0.9, where 1 is the maximum; inconclusive means response in the unintended direction; inactive means score below 0.9.

The molecules below were run on turtle Androgen Receptor (AR), gene 101947425 (assay: ATG_trAR_XSP2: Attagene TRANS-FACTORIAL Multi-Species (XSP2) HepG2 Assay for turtle Androgen Receptor (AR) (AID 2283815);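 on AC50: potency for gain of reporter signal meaning activation above DMSO baseline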).
Protocol: ATG_XSP2_multi-species_TRANS is a cell-based, multiplexed assay created by modifying the existing Attagene TRANS-FACTORIAL system to include a panel of nuclear receptors from some or all the following species: human (Homo sapiens), mouse (Mus musculus), frog (Xenopus laevis), zebrafish (Danio rerio), chicken (Gallus gallus), and turtle (Chrysemys picta). The […] format uses HepG2, a human liver cell line, with measurements taken at 24 hours after chemical dosing in a 24-well plate. Xsp2 included 3 nM 6-alpha-fluorotestosterone and 1.5 nM norgestrel to stimulate the androgen receptor.ATG_trAR_XSP2 is one of 29 assay components measured or calculated from the ATG_XSP2_multi-species_TRANS assay. It is designed to make measurements of mRNA induction, a form of inducible reporter, as detected with fluorescence intensity signals by Reverse transcription polymerase chain reaction (RT-PCR) and Capillary electrophoresis technology.The assay endpoint ATG_trAR_XSP2 was analyzed in the positive analysis fitting direction relative to DMSO as the negative control and baseline of activity. Using a type of inducible reporter, measures of mRNA for gain-of-signal activity can be used to understand the reporter gene at the transcription factor-level as they relate to the gene AR. Furthermore, this assay endpoint can be referred to as a primary readout, because this assay has produced multiple assay endpoints where this one serves a reporter gene function. To generalize the intended target to other relatable targets, this assay endpoint is annotated to the nuclear receptor intended target family, where the subfamily is steroidal.
Human liver HepG2 cells are transiently transfected with multiple reporter transcription units (MRTUs) in 6-well plates using FuGene 6 reagent (Roche; 3 ml FuGene/1 mg DNA). The MRTU constructs are regulated by a cis-regulating element (promoter). […] A major difference between the CIS and TRANS system is that in CIS activities of endogenous TFs are measured, whereas the TRANS assay evaluates changes in activities of exogenous, chimeric NR-Gal4 proteins. […] At the end of 24 hour incubation, total RNA was isolated using TriZol reagent (Invitrogen). The isolated RNA is then reverse-transcribed using oligo(dT) primer and Mo-MLV reverse transcriptase (Invitrogen) with DNAse I (Ambion) treatment for 30 min. The one-tenth of the produced cDNA was amplified by PCR using Taq DNA polymerase (Invitrogen) and two reporter sequence-specific primers. The PCR products were fluorescently labeled by primer extension with 6-arboxyfluorescein (6-FAM) 5'-labeled reporter sequence-specific primer (2 min at 95 C, 20 s at 68 C and 10 min at 72 C) and these products were digested with 5U of HpaI (New England Biolabs) for 2h at 37 C. The fragments were purified using Qiaquick PCR columns (Qiagen), analyzed on an ABI 3130xL genetic analyzer (Applied Biosystems) with peak positions identified by using a set of X-rhodamine (ROX)-labeled MapMarker1000 molecular weight standards (BioVentures). The raw capillary electrophoresis data was processed using Attagraph software (Attagene).

Q: Which AC50 does the source give for `CC(=O)C(C)=CC1C(C)=CCCC1(C)C` (configuration not stated) here?
A: Its AC50 is inconclusive: 33.7 µM and inconclusive: 5.56 µM.

Q: How did the outcome turn out when `O=C(O)Cc1cc(I)c(Oc2ccc(O)c(I)c2)c(I)c1` was run?
A: Its outcome is “inactive”.

Q: And the AC50?
A: The AC50 was inconclusive: 1 µM.

Q: For `C=CCOC(Cn1ccnc1)c1ccc(Cl)cc1Cl` (configuration not stated), which AC50 is on record?
A: The AC50 was inconclusive: 27.7 µM.

Q: With `O=c1c(O)c(-c2ccc(O)cc2)oc2cc(O)cc(O)c12` as the molecule, how does the AC50 read?
A: Its AC50 is active: 3.01 µM and active: 1.32 µM.

Q: With `CCN(CC)C(=S)SSC(=S)N(CC)CC` as the molecule, how does the AC50 read?
A: The AC50 was inconclusive: 11 µM.

Q: For `O=C(c1ccc(O)cc1)c1ccc(O)cc1O`, which AC50 is on record?
A: Its AC50 is inconclusive: 10 µM.

Q: How did the outcome turn out when `CCCCCCCCCCCCN` was run?
A: The outcome was “inactive”.

Q: What about the AC50 of the same molecule?
A: Its AC50 is inconclusive: 0.563 µM.

Q: `Oc1ccccc1Cc1ccccc1O` was tested. Which AC50 did it give?
A: The AC50 was inconclusive: 45.2 µM and inconclusive: 28.1 µM.

Q: `OCc1cccc(Oc2ccccc2)c1` was tested. Which AC50 did it give?
A: The AC50 was inconclusive: 68.1 µM and inconclusive: 48 µM.

Q: Which outcome does the source give for `CCN(Cc1c(F)cccc1Cl)c1c([N+](=O)[O-])cc(C(F)(F)F)cc1[N+](=O)[O-]` here?
A: Its outcome is “inactive”.

Q: And the AC50?
A: The AC50 was inconclusive: 100 µM.

Q: How did the AC50 turn out when `Oc1ccc2c(c1)-c1ccccc1C2` was run?
A: Its AC50 is inconclusive: 26 µM and inconclusive: 5.34 µM.

Q: Which AC50 does the source give for `Clc1nc(Cl)c(Cl)c(Cl)c1Cl` here?
A: The AC50 was inconclusive: 26.3 µM and inconclusive: 64.2 µM.

Q: Which AC50 does the source give for `O=c1cc(-c2ccccc2)oc2cc(O)cc(O)c12` here?
A: Its AC50 is inconclusive: 100 µM and active: 1.41 µM.

Q: `CCCCC(CC)CN1C(=O)C2C3C=CC(C3)C2C1=O` (configuration not stated) was tested. Which AC50 did it give?
A: Its AC50 is inconclusive: 100 µM.

Q: For `C=CCc1cc(S(=O)(=O)c2ccc(O)c(CC=C)c2)ccc1O`, which outcome is on record?
A: The outcome was “inactive”.

Q: With `CC(C)(C)c1cc(O)c(C(C)(C)C)cc1O` as the molecule, how does the AC50 read?
A: The AC50 was inconclusive: 181 µM.

Q: `Cc1cc(=O)oc2cc(N(C)C)ccc12` was tested. Which AC50 did it give?
A: Its AC50 is inconclusive: 41 µM and inconclusive: 24.5 µM.

Q: With `Clc1ccc(C(c2ccccc2Cl)C(Cl)Cl)cc1` (configuration not stated) as the molecule, how does the AC50 read?
A: The AC50 was inconclusive: 5.16 µM and inconclusive: 1.68 µM.

Q: Which AC50 does the source give for `CC(C)(C)NC(=O)[C@H]1CC[C@H]2[C@@H]3CC[C@H]4NC(=O)C=C[C@]4(C)[C@H]3CC[C@]12C` here?
A: Its AC50 is inconclusive: 0.279 µM.
